This passage reports IC50 results from US6750244B2, “Compounds active at a novel site on receptor-operated calcium channels useful for treatment of neurological disorders and diseases” (NPS Pharmaceuticals, Inc., priority 1993, dated 2004).

In general, IC50 refers to the concentration that gives 50% inhibition.

Assay [1] addresses NMDA receptor-ionophore complex (site labeled by [3H]MK-801). In words: Inhibition of [3H]MK-801 binding in rat cortical/hippocampal washed membrane preparations. The settings on record: read-out: IC50 (μM) vs. [3H]MK-801; rat cortical/hippocampal washed membranes.
Assay [2] relates to NMDA receptor. The assay is described as follows: Inhibition of NMDA/glycine-induced increases in intracellular calcium in cultured rat cerebellar granule cells (RCGC). The class given is cell-based. The settings on record: read-out: IC50 (μM) vs. NMDA. In general terms: A change in cytosolic calcium serves as a functional read-out for many receptors and channels.

Turning to `CN(C)CCCN1c2ccccc2CCc2ccc(Cl)cc21` [Clomipramine, reference compound], in assay [1], the IC50 is 10 µM.
The same measure, in the same setting: with `CN(C)CC/C=C1\c2ccccc2COc2ccccc21` [Doxepin, reference compound] the figure was 30.4 µM.
Consider `CNCCCC12CCC(c3ccccc31)c1ccccc12` [Maprotiline, reference compound], for which the IC50 in assay [2] came to 5.8 µM.
Still for that read-out and setting: to `CN(C)CCOC(c1ccccc1)c1ccccc1` [diphenhydramine, reference compound] belongs 26 µM.
On the same count and under the same terms, to `CNCCC(Oc1ccc(C(F)(F)F)cc1)c1ccccc1` (centres unmarked) [fluoxetine, reference compound] belongs 3.4 µM.
